These are yes or no findings as the source states them, for the method shown. Binding seen in cells or lysates may run through a third protein.

Sequences of proteins named here, by UniProt entry; tags and fusion partners are left off.
UniProt Q06330: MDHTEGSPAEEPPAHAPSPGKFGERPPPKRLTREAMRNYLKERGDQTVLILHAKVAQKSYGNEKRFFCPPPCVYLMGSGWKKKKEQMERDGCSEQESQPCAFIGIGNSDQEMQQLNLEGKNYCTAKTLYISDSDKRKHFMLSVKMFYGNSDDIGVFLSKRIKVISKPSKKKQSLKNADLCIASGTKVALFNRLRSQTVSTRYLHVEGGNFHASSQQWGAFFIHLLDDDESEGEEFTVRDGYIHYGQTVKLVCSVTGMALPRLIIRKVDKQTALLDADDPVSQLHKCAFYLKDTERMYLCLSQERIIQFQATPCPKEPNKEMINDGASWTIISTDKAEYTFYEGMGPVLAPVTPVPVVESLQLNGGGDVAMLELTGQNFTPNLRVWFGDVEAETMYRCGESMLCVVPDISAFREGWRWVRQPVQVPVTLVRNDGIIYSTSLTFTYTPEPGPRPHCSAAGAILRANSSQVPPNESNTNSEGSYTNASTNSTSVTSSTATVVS

This assay concerns the target RBP-jκ (human (endogenous in LCL and Mutu I)) (UniProt Q06330). As to the kind of experiment: co-IP; MutuI (M) or LCL (L) cell extracts, IP with control IgG, anti-EBF1 or anti-RBP-jκ, Western blot for EBNA2, EBF1 or RBP-jκ; input 2% of starting lysate. In general terms: Immunoblotting shows a protein as a band on a membrane.

B1: Early B-cell Factor 1 (EBF1) (protein, UniProt Q9UH73 1-591)
chain: MFGIQESIQRSGSSMKEEPLGSGMNAVRTWMQGAGVLDANTAAQSGVGLARAHFEKQPPSNLRKSNFFHFVLALYDRQGQPVEIERTAFVGFVEKEKEANSEKTNNGIHYRLQLLYSNGIRTEQDFYVRLIDSMTKQAIVYEGQDKNPEMCRVLLTHEIMCSRCCDKKSCGNRNETPSDPVIIDRFFLKFFLKCNQNCLKNAGNPRDMRRFQVVVSTTVNVDGHVLAVSDNMFVHNNSKHGRRARRLDPSEGTPSYLEHATPCIKAISPSEGWTTGGATVIIIGDNFFDGLQVIFGTMLVWSELITPHAIRVQTPPRHIPGVVEVTLSYKSKQFCKGTPGRFIYTALNEPTIDYGFQRLQKVIPRHPGDPERLPKEVILKRAADLVEALYGMPHNNQEIILKRAADIAEALYSVPRNHNQLPALANTSVHAGMMGVNSFSGQLAVNVSEASQATNQGFTRNSSSVSPHGYVPSTTPQQTNYNSVTTSMNGYGSAAMSNLGGSPTFLNGSAANSPYAIVPSSPTMASSTSLPSNCSSSSGIFSFSPANMVSAVKQKSAFAPVVRPQTSPPPTCTSTNGNSLQAISGMIVPPM
As for B1, the binding entry is on record as “no binding”.

(Values after publication PMC4709166.)
